# Measurements: the supplement of paper PMC8728848
# The list shows a part of the results.
# B1: Langerin K299A/K313A (Homo sapiens), Q9UJ71 (protein)
# chain: STLNAQIPELKSDLEKASALNTKIRALQGSLENMSKLLKRQNDILQVVSQGWKYFKGNFYYFSLIPKTWYSAEQFCVSRNSHLTSVTSESEQEFLYKTAGGLIYWIGLTKAGMEGDWSWVDDTPFNKVQSARFWIPGEPNNAGNNEHCGNIAAPSLQAWNDAPCDATFLFICKRPYVPSEP
# What was measured:
# Test in all cases: glycan array binding signal (z-score within array); higher = stronger binding
# Settings in all cases: glycan notation: IUPAC condensed, linker removed
# Glc(b1-6)Glc = target: Glc(b1-6)Glc
# Procedure, shortened: (§1)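 The Consortium for Functional Glycomics database supplied 3228 glycan arrays, of which those lacking an available protein sequence were dropped. The binding signal, a within-array Z-score, was averaged across arrays of the same protein sequence and across linkers. Negative scores can be read as non-binding.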
# GlcA(b1-3)Gal = target: GlcA(b1-3)Gal
# Procedure, shortened: as §1
# GlcA(b1-3)GlcNAc = target: GlcA(b1-3)GlcNAc
# Procedure, shortened: as §1
# GlcA(b1-6)Gal = target: GlcA(b1-6)Gal
# Procedure, shortened: as §1
# [1] = target: GlcA3S(b1-3)Gal(b1-4)GlcNAc(b1-2)Man
# Procedure, shortened: as §1
# [2] = target: GlcA3S(b1-3)Gal(b1-4)GlcNAc(b1-3)Gal(b1-4)Glc
# Procedure, shortened: as §1
# [3] = target: GlcNAc(a1-3)Gal(b1-4)GlcNAc
# Procedure, shortened: as §1
# [4] = target: GlcNAc(a1-4)Gal(b1-3)GlcNAc
# Procedure, shortened: as §1
# [5] = target: GlcNAc(a1-4)Gal(b1-4)GalNAc
# Procedure, shortened: as §1
# [6] = target: GlcNAc(a1-4)Gal(b1-4)GlcNAc
# Procedure, shortened: as §1
# [7] = target: GlcNAc(a1-4)Gal(b1-4)GlcNAc(b1-3)Gal(b1-4)Glc
# Procedure, shortened: as §1
# [8] = target: GlcNAc(a1-4)Gal(b1-4)GlcNAc(b1-3)Gal(b1-4)GlcNAc
# Procedure, shortened: as §1
# [9] = target: GlcNAc(a1-4)Gal(b1-4)GlcNAc(b1-3)Gal(b1-4)GlcNAc(b1-3)Gal(b1-4)GlcNAc
# Procedure, shortened: as §1
# [10] = target: GlcNAc(a1-4)Gal(b1-4)GlcNAc(b1-3)Gal(b1-4)[Fuc(a1-3)]GlcNAc(b1-3)Gal(b1-4)[Fuc(a1-3)]GlcNAc
# Procedure, shortened: as §1
# [11] = target: GlcNAc(a1-6)Gal(b1-4)GlcNAc
# Procedure, shortened: as §1
# [12] = target: GlcNAc(b1-2)Gal(b1-3)GalNAc
# Procedure, shortened: as §1
# [13] = target: GlcNAc(b1-2)Man(a1-3)[GlcNAc(b1-2)Man(a1-6)]Man(b1-4)GlcNAc(b1-4)GlcNAc
# Procedure, shortened: as §1
# [14] = target: GlcNAc(b1-2)Man(a1-3)[GlcNAc(b1-2)Man(a1-6)]Man(b1-4)GlcNAc(b1-4)[Fuc(a1-6)]GlcNAc
# Procedure, shortened: as §1
# [15] = target: GlcNAc(b1-2)Man(a1-3)[GlcNAc(b1-4)][GlcNAc(b1-2)Man(a1-6)]Man(b1-4)GlcNAc(b1-4)GlcNAc
# Procedure, shortened: as §1
# [16] = target: GlcNAc(b1-2)Man(a1-3)[GlcNAc(b1-4)][GlcNAc(b1-2)Man(a1-6)]Man(b1-4)GlcNAc(b1-4)[Fuc(a1-6)]GlcNAc
# Procedure, shortened: as §1
# [17] = target: GlcNAc(b1-2)[GlcNAc(b1-4)]Man(a1-3)[GlcNAc(b1-2)Man(a1-6)]Man(b1-4)GlcNAc(b1-4)GlcNAc
# Procedure, shortened: as §1
# [18] = target: GlcNAc(b1-2)[GlcNAc(b1-4)]Man(a1-3)[GlcNAc(b1-4)][GlcNAc(b1-2)Man(a1-6)]Man(b1-4)GlcNAc(b1-4)GlcNAc
# Procedure, shortened: as §1
# [19] = target: GlcNAc(b1-2)[GlcNAc(b1-4)]Man(a1-3)[GlcNAc(b1-4)][GlcNAc(b1-2)[GlcNAc(b1-6)]Man(a1-6)]Man(b1-4)GlcNAc(b1-4)GlcNAc
# Procedure, shortened: as §1
# [20] = target: GlcNAc(b1-2)[GlcNAc(b1-4)]Man(a1-3)[GlcNAc(b1-4)][GlcNAc(b1-2)[GlcNAc(b1-6)]Man(a1-6)]Man(b1-4)GlcNAc(b1-4)[Fuc(a1-6)]GlcNAc
# Procedure, shortened: as §1
# [21] = target: GlcNAc(b1-2)[GlcNAc(b1-6)]Man(a1-6)[GlcNAc(b1-2)Man(a1-3)]Man(b1-4)GlcNAc(b1-4)GlcNAc
# Procedure, shortened: as §1
# [22] = target: GlcNAc(b1-2)[GlcNAc(b1-6)]Man(a1-6)[GlcNAc(b1-2)Man(a1-3)]Man(b1-4)GlcNAc(b1-4)[Fuc(a1-6)]GlcNAc
# Procedure, shortened: as §1
# [23] = target: GlcNAc(b1-2)[GlcNAc(b1-6)]Man(a1-6)[GlcNAc(b1-4)][GlcNAc(b1-2)Man(a1-3)]Man(b1-4)GlcNAc(b1-4)GlcNAc
# Procedure, shortened: as §1
# GlcNAc(b1-3)Fuc = target: GlcNAc(b1-3)Fuc
# Procedure, shortened: as §1
# GlcNAc(b1-3)Gal = target: GlcNAc(b1-3)Gal
# Procedure, shortened: as §1
# [24] = target: GlcNAc(b1-3)Gal(b1-3)GalNAc
# Procedure, shortened: as §1
# GlcNAc(b1-3)Gal(b1-4)Glc = target: GlcNAc(b1-3)Gal(b1-4)Glc
# Procedure, shortened: as §1
# [25] = target: GlcNAc(b1-3)Gal(b1-4)GlcNAc
# Procedure, shortened: as §1
# [26] = target: GlcNAc(b1-3)Gal(b1-4)GlcNAc(b1-2)Man(a1-3)[GlcNAc(b1-3)Gal(b1-4)GlcNAc(b1-2)Man(a1-6)]Man(b1-4)GlcNAc(b1-4)GlcNAc
# Procedure, shortened: as §1
# [27] = target: GlcNAc(b1-3)Gal(b1-4)GlcNAc(b1-2)Man(a1-3)[GlcNAc(b1-3)Gal(b1-4)GlcNAc(b1-2)Man(a1-6)]Man(b1-4)GlcNAc(b1-4)[Fuc(a1-6)]GlcNAc
# Procedure, shortened: as §1
# [28] = target: GlcNAc(b1-3)Gal(b1-4)GlcNAc(b1-2)[GlcNAc(b1-3)Gal(b1-4)GlcNAc(b1-6)]Man(a1-6)[GlcNAc(b1-3)Gal(b1-4)GlcNAc(b1-2)Man(a1-3)]Man(b1-4)GlcNAc(b1-4)GlcNAc
# Procedure, shortened: as §1
# [29] = target: GlcNAc(b1-3)Gal(b1-4)GlcNAc(b1-3)Gal(b1-4)GlcNAc
# Procedure, shortened: as §1
# [30] = target: GlcNAc(b1-3)Gal(b1-4)GlcNAc(b1-3)Gal(b1-4)GlcNAc(b1-2)Man(a1-3)[GlcNAc(b1-3)Gal(b1-4)GlcNAc(b1-3)Gal(b1-4)GlcNAc(b1-2)Man(a1-6)]Man(b1-4)GlcNAc(b1-4)GlcNAc
# Procedure, shortened: as §1
# [31] = target: GlcNAc(b1-3)Gal(b1-4)GlcNAc(b1-3)Gal(b1-4)GlcNAc(b1-2)Man(a1-3)[GlcNAc(b1-3)Gal(b1-4)GlcNAc(b1-3)Gal(b1-4)GlcNAc(b1-2)Man(a1-6)]Man(b1-4)GlcNAc(b1-4)[Fuc(a1-6)]GlcNAc
# Procedure, shortened: as §1
# [32] = target: GlcNAc(b1-3)Gal(b1-4)GlcNAc(b1-3)Gal(b1-4)GlcNAc(b1-2)[GlcNAc(b1-3)Gal(b1-4)GlcNAc(b1-3)Gal(b1-4)GlcNAc(b1-6)]Man(a1-6)[GlcNAc(b1-3)Gal(b1-4)GlcNAc(b1-3)Gal(b1-4)GlcNAc(b1-2)Man(a1-3)]Man(b1-4)GlcNAc(b1-4)[Fuc(a1-6)]GlcNAc
# Procedure, shortened: as §1
# [33] = target: GlcNAc(b1-3)Gal(b1-4)GlcNAc(b1-3)Gal(b1-4)GlcNAc(b1-3)Gal(b1-4)GlcNAc(b1-2)Man(a1-3)[GlcNAc(b1-3)Gal(b1-4)GlcNAc(b1-3)Gal(b1-4)GlcNAc(b1-3)Gal(b1-4)GlcNAc(b1-2)Man(a1-6)]Man(b1-4)GlcNAc(b1-4)GlcNAc
# Procedure, shortened: as §1
# [34] = target: GlcNAc(b1-3)Gal(b1-4)GlcNAc(b1-3)Gal(b1-4)GlcNAc(b1-3)Gal(b1-4)GlcNAc(b1-2)Man(a1-3)[GlcNAc(b1-3)Gal(b1-4)GlcNAc(b1-3)Gal(b1-4)GlcNAc(b1-3)Gal(b1-4)GlcNAc(b1-2)Man(a1-6)]Man(b1-4)GlcNAc(b1-4)[Fuc(a1-6)]GlcNAc
# Procedure, shortened: as §1
# [35] = target: GlcNAc(b1-3)Gal(b1-4)GlcNAc(b1-3)Gal(b1-4)GlcNAc(b1-3)Gal(b1-4)GlcNAc(b1-2)[GlcNAc(b1-3)Gal(b1-4)GlcNAc(b1-3)Gal(b1-4)GlcNAc(b1-3)Gal(b1-4)GlcNAc(b1-6)]Man(a1-6)[GlcNAc(b1-3)Gal(b1-4)GlcNAc(b1-3)Gal(b1-4)GlcNAc(b1-3)Gal(b1-4)GlcNAc(b1-2)Man(a1-3)]Man(b1-4)GlcNAc(b1-4)[Fuc(a1-6)]GlcNAc
# Procedure, shortened: as §1
# [36] = target: GlcNAc(b1-3)Gal(b1-4)GlcNAc(b1-3)Gal(b1-4)GlcNAc(b1-3)Gal(b1-4)GlcNAc(b1-3)Gal(b1-4)GlcNAc(b1-2)Man(a1-3)[GlcNAc(b1-3)Gal(b1-4)GlcNAc(b1-3)Gal(b1-4)GlcNAc(b1-3)Gal(b1-4)GlcNAc(b1-3)Gal(b1-4)GlcNAc(b1-2)Man(a1-6)]Man(b1-4)GlcNAc(b1-4)GlcNAc
# Procedure, shortened: as §1
# [37] = target: GlcNAc(b1-3)Gal(b1-4)GlcNAc(b1-3)Gal(b1-4)GlcNAc(b1-3)Gal(b1-4)GlcNAc(b1-3)Gal(b1-4)GlcNAc(b1-2)Man(a1-3)[GlcNAc(b1-3)Gal(b1-4)GlcNAc(b1-3)Gal(b1-4)GlcNAc(b1-3)Gal(b1-4)GlcNAc(b1-3)Gal(b1-4)GlcNAc(b1-2)Man(a1-6)]Man(b1-4)GlcNAc(b1-4)[Fuc(a1-6)]GlcNAc
# Procedure, shortened: as §1
# [38] = target: GlcNAc(b1-3)Gal(b1-4)GlcNAc(b1-3)Gal(b1-4)GlcNAc(b1-3)Gal(b1-4)GlcNAc(b1-3)Gal(b1-4)GlcNAc(b1-2)[GlcNAc(b1-3)Gal(b1-4)GlcNAc(b1-3)Gal(b1-4)GlcNAc(b1-3)Gal(b1-4)GlcNAc(b1-3)Gal(b1-4)GlcNAc(b1-6)]Man(a1-6)[GlcNAc(b1-3)Gal(b1-4)GlcNAc(b1-3)Gal(b1-4)GlcNAc(b1-3)Gal(b1-4)GlcNAc(b1-3)Gal(b1-4)GlcNAc(b1-2)Man(a1-3)]Man(b1-4)GlcNAc(b1-4)[Fuc(a1-6)]GlcNAc
# Procedure, shortened: as §1
binder,measurement,setting,value
B1,glycan array binding signal (z-score),Glc(b1-6)Glc,-0.203
same,glycan array binding signal (z-score),GlcA(b1-3)Gal,-0.832
same,glycan array binding signal (z-score),GlcA(b1-3)GlcNAc,0.979
same,glycan array binding signal (z-score),GlcA(b1-6)Gal,-0.822
same,glycan array binding signal (z-score),[1],-1
same,glycan array binding signal (z-score),[2],-0.699
same,glycan array binding signal (z-score),[3],-1.22
same,glycan array binding signal (z-score),[4],-0.596
same,glycan array binding signal (z-score),[5],-0.167
same,glycan array binding signal (z-score),[6],-0.662
same,glycan array binding signal (z-score),[7],-0.826
same,glycan array binding signal (z-score),[8],-1.05
same,glycan array binding signal (z-score),[9],-0.581
same,glycan array binding signal (z-score),[10],1.56
same,glycan array binding signal (z-score),[11],0.024
same,glycan array binding signal (z-score),[12],0.486
same,glycan array binding signal (z-score),[13],-0.408
same,glycan array binding signal (z-score),[14],0.474
same,glycan array binding signal (z-score),[15],-0.464
same,glycan array binding signal (z-score),[16],-0.367
same,glycan array binding signal (z-score),[17],-0.579
same,glycan array binding signal (z-score),[18],0.535
same,glycan array binding signal (z-score),[19],-0.346
same,glycan array binding signal (z-score),[20],-0.967
same,glycan array binding signal (z-score),[21],-0.671
same,glycan array binding signal (z-score),[22],0.734
same,glycan array binding signal (z-score),[23],-0.875
same,glycan array binding signal (z-score),GlcNAc(b1-3)Fuc,-0.593
same,glycan array binding signal (z-score),GlcNAc(b1-3)Gal,-0.419
same,glycan array binding signal (z-score),[24],-0.072
same,glycan array binding signal (z-score),GlcNAc(b1-3)Gal(b1-4)Glc,-0.146
same,glycan array binding signal (z-score),[25],-0.768
same,glycan array binding signal (z-score),[26],0.619
same,glycan array binding signal (z-score),[27],1.34
same,glycan array binding signal (z-score),[28],3.64
same,glycan array binding signal (z-score),[29],-0.585
same,glycan array binding signal (z-score),[30],0.828
same,glycan array binding signal (z-score),[31],1.26
same,glycan array binding signal (z-score),[32],2.02
same,glycan array binding signal (z-score),[33],-0.025
same,glycan array binding signal (z-score),[34],5.83
same,glycan array binding signal (z-score),[35],0.585
same,glycan array binding signal (z-score),[36],2.75
same,glycan array binding signal (z-score),[37],0.099
same,glycan array binding signal (z-score),[38],1.84

# 3 entries from above, with bars between the fields:
binder | measurement | setting | value
B1 | glycan array binding signal (z-score) | [32] | 2.02
same | glycan array binding signal (z-score) | [33] | -0.025
same | glycan array binding signal (z-score) | [34] | 5.83
